Measurements from paper PMC10713516.
These are yes or no findings as the source states them, for the method shown. In cells and extracts the contact can be indirect. Some results given as binding are weak or reduced against the parent protein; the word gives no strength. Tags and fused reporters may be left off the sequences shown.

B1: Platelet-activating factor acetylhydrolase IB subunit alpha1 (PAFAH1B3) (protein, UniProt Q15102 1-231)
chain: MSGEENPASKPTPVQDVQGDGRWMSLHHRFVADSKDKEPEVVFIGDSLVQLMHQCEIWRELFSPLHALNFGIGGDGTQHVLWRLENGELEHIRPKIVVVWVGTNNHGHTAEQVTGGIKAIVQLVNERQPQARVVVLGLLPRGQHPNPLREKNRQVNELVRAALAGHPRAHFLDADPGFVHSDGTISHHDMYDYLHLSRLGYTPVCRALHSLLLRLLAQDQGQGAPLLEPAP
B2: SNW domain-containing protein 1 (SNW1) (protein, UniProt Q13573 1-536)
chain: MALTSFLPAPTQLSQDQLEAEEKARSQRSRQTSLVSSRREPPPYGYRKGWIPRLLEDFGDGGAFPEIHVAQYPLDMGRKKKMSNALAIQVDSEGKIKYDAIARQGQSKDKVIYSKYTDLVPKEVMNADDPDLQRPDEEAIKEITEKTRVALEKSVSQKVAAAMPVRAADKLAPAQYIRYTPSQQGVAFNSGAKQRVIRMVEMQKDPMEPPRFKINKKIPRGPPSPPAPVMHSPSRKMTVKEQQEWKIPPCISNWKNAKGYTIPLDKRLAADGRGLQTVHINENFAKLAEALYIADRKAREAVEMRAQVERKMAQKEKEKHEEKLREMAQKARERRAGIKTHVEKEDGEARERDEIRHDRRKERQHDRNLSRAAPDKRSKLQRNENRDISEVIALGVPNPRTSNEVQYDQRLFNQSKGMDSGFAGGEDEIYNVYDQAWRGGKDMAQSIYRPSKNLDKDMYGDDLEARIKTNRFVPDKEFSGSDRRQRGREGPVQFEEDPFGLDKFLEEAKQHGGSKRPSDSSRPKEHEHEGKKRRKE

Target: T1, 3 × Flag-HOMER3 (human) (UniProt Q9NSC5)
T1 sequence: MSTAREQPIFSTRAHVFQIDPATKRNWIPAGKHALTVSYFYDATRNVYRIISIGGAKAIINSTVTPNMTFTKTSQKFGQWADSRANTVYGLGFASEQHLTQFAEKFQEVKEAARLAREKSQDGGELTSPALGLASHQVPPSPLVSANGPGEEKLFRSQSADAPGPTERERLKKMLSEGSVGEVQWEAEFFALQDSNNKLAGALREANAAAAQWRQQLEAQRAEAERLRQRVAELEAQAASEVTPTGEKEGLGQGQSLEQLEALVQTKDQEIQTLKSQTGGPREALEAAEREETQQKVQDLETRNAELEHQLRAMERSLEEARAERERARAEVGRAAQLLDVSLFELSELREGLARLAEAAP
Experiment: co-IP; anti-Flag immunoprecipitation (anti-Flag antibody, protein A agarose / flag-beads, overnight at 4 °C) from extracts of H1299 cells overexpressing 3xFlag-HOMER3 and of control cells; washed with lysis buffer; Western blotting

| binding | Binder |
| --- | --- |
| binds | B1 |
| binds | B2 |
